In the supplement of paper PMC10849652:
The other results are listed elsewhere or left out.

The chains behind the UniProt entries cited, without tags or fusion partners. Where a name states a change or a piece, a line headed by the entry shows the natural chain unless it says otherwise.
UniProt P13929, whole entry, looked up: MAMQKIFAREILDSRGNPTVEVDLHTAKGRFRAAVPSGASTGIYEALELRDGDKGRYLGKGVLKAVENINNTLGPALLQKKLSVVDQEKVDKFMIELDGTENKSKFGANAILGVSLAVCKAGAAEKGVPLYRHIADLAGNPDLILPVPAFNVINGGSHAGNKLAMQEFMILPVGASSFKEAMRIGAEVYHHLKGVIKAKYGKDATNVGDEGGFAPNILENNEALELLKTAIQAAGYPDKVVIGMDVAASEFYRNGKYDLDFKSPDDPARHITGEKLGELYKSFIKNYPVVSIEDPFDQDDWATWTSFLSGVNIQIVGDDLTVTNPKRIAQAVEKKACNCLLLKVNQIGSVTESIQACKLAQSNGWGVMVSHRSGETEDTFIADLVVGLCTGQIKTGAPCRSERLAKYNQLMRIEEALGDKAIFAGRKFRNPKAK
UniProt Q96EB1: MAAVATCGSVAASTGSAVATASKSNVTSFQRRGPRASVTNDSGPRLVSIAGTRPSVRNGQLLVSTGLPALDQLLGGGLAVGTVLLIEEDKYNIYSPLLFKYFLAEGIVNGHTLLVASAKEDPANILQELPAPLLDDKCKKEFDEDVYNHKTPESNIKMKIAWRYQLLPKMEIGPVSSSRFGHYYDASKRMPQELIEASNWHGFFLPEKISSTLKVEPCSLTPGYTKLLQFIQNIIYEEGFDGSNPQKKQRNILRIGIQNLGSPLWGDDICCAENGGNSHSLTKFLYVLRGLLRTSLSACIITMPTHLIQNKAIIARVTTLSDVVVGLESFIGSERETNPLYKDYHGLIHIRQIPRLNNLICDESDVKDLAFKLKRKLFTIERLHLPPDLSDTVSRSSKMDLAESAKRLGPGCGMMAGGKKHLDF
UniProt Q9HC35: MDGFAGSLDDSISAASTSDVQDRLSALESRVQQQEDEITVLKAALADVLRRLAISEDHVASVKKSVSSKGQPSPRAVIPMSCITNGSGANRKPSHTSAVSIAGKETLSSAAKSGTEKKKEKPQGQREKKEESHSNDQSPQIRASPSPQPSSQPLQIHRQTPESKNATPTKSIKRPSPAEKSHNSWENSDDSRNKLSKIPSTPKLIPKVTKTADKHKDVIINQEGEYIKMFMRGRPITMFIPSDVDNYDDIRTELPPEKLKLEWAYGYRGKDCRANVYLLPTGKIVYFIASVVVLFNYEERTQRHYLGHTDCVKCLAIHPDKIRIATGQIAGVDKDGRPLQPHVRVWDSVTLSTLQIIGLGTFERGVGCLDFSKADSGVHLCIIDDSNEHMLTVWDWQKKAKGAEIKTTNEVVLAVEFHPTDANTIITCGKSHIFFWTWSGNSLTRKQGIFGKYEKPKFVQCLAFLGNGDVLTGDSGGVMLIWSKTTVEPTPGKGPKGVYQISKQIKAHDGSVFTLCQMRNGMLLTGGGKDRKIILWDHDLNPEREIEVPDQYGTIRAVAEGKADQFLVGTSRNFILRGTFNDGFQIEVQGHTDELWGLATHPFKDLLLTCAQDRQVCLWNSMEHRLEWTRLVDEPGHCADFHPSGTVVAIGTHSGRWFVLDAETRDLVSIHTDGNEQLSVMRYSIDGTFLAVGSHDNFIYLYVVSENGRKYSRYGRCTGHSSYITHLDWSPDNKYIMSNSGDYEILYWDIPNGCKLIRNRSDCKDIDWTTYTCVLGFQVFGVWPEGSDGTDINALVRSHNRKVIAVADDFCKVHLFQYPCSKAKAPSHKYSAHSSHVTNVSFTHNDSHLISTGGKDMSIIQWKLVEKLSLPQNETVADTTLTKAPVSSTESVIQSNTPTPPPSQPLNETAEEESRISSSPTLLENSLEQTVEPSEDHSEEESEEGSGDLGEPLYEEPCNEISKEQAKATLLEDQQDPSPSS
UniProt Q96L91, whole entry, looked up: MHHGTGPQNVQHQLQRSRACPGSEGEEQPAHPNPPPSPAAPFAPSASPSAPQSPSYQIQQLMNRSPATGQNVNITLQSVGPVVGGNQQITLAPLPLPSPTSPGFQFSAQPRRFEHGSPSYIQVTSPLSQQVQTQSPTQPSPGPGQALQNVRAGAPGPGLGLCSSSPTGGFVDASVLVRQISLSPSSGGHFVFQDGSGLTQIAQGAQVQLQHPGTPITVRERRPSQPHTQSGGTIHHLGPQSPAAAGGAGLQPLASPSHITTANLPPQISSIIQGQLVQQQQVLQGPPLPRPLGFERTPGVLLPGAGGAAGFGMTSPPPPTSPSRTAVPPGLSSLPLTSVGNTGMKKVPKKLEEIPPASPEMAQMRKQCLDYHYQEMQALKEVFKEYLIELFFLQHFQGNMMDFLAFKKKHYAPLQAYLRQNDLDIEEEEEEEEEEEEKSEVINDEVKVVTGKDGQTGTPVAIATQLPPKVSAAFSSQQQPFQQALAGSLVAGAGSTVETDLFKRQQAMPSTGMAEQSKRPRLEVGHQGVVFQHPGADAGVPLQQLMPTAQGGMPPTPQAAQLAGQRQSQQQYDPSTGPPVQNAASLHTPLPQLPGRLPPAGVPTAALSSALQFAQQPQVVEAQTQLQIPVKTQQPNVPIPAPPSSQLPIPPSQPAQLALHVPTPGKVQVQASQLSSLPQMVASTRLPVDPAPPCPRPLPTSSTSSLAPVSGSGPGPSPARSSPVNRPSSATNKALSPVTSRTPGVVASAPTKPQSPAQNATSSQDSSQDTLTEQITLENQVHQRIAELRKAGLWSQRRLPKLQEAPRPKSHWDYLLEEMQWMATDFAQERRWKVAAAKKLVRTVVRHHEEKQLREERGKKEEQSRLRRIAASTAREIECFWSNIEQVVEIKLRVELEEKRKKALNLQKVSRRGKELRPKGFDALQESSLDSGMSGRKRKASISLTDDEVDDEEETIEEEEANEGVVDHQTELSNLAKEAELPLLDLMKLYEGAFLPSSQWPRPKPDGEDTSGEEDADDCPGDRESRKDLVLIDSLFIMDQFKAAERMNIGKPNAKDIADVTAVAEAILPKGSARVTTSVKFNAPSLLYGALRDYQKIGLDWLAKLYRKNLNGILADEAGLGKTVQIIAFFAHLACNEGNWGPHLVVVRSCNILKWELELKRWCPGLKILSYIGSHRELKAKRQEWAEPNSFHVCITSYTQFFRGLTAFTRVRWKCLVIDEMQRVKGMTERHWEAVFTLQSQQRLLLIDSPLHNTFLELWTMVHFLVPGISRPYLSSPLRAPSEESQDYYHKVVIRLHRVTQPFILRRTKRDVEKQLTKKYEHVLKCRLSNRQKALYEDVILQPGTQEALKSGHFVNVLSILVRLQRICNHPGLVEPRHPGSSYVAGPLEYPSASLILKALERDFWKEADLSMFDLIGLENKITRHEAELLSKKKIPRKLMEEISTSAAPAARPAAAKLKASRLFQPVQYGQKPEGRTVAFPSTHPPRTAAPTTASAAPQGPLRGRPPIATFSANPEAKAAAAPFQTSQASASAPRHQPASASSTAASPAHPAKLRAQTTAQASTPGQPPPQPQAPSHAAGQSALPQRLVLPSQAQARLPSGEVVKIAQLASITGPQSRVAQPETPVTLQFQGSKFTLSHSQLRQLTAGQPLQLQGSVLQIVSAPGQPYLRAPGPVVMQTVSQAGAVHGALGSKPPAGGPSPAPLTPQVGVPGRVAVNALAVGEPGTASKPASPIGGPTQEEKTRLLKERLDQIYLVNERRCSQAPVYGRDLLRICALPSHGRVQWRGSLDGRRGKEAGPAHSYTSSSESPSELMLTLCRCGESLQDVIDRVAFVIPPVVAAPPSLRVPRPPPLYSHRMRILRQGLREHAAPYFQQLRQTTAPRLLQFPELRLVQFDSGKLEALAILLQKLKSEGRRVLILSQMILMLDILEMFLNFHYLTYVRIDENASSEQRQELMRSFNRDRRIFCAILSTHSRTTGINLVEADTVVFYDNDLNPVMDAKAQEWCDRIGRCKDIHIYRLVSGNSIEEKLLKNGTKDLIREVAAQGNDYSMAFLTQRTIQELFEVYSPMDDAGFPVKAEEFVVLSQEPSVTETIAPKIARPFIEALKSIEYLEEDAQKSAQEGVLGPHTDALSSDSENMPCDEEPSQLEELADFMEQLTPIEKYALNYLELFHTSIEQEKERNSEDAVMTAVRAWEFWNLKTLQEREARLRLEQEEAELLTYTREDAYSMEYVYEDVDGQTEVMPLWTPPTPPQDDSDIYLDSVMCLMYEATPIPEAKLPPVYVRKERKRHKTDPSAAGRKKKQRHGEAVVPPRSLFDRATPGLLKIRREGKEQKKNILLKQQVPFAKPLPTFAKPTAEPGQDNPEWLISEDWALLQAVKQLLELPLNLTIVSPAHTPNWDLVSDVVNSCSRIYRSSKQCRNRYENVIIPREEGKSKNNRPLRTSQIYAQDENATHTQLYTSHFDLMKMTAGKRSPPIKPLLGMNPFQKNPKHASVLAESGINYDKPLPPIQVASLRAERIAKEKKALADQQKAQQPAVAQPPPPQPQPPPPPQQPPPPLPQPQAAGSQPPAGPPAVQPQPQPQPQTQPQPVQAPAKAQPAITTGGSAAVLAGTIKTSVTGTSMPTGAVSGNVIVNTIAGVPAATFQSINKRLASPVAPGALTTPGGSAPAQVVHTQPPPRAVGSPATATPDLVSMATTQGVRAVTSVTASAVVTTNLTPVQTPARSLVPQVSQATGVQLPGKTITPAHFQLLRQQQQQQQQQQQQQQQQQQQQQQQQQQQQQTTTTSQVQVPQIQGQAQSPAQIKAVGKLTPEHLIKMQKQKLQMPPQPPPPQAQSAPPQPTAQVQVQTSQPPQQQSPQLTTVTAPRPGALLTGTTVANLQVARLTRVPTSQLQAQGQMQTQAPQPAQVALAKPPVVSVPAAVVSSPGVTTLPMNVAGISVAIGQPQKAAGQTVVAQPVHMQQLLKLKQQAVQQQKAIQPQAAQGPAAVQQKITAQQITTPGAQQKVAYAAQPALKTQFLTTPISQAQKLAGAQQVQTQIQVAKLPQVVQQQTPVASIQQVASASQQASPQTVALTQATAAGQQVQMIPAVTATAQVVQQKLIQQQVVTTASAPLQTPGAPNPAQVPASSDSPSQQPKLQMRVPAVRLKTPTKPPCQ
UniProt P63241: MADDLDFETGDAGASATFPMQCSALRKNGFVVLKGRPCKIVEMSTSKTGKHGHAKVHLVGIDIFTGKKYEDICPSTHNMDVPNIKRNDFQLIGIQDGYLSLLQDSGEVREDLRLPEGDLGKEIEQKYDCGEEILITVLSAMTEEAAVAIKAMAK
UniProt Q99613, whole entry, looked up: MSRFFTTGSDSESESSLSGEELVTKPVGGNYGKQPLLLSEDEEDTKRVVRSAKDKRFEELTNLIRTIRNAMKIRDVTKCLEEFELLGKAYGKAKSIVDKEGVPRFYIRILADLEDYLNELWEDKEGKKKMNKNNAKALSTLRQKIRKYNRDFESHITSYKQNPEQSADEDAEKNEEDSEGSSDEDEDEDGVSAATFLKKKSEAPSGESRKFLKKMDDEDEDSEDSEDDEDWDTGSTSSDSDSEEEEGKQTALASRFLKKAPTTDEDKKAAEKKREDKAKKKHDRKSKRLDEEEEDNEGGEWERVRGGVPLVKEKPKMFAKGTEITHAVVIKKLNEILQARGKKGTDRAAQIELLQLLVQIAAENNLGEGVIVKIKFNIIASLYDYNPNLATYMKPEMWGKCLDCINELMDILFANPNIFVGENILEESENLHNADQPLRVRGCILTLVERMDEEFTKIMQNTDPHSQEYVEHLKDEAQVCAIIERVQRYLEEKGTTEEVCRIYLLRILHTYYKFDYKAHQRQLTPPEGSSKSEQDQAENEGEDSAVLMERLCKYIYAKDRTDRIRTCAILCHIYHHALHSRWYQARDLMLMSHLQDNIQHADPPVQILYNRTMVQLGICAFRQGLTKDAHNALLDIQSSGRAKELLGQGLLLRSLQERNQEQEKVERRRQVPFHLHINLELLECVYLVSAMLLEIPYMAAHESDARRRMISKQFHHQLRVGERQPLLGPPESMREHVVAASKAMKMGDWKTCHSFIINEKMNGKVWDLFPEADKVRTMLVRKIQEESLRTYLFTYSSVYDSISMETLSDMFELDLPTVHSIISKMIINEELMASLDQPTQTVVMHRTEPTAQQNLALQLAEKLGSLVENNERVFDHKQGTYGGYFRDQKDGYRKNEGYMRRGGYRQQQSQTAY
UniProt Q0PNE2: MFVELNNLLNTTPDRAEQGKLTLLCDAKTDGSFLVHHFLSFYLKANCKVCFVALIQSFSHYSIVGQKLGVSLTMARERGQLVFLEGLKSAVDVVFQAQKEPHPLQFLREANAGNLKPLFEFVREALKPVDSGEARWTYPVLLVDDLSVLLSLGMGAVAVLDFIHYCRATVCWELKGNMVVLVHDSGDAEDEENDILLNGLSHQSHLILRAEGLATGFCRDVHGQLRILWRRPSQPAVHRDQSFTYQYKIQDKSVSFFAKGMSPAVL
UniProt O75822, whole entry, looked up: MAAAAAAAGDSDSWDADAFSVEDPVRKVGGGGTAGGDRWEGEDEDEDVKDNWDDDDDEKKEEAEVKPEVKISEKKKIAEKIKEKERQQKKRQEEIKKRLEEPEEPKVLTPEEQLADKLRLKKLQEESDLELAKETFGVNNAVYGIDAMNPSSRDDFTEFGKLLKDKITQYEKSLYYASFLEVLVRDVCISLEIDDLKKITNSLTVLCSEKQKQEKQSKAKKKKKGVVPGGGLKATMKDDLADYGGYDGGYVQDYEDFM

How the values were obtained:
Assay in all cases: log2 fold change, soluble protein after heating vs DMSO (PISA); higher = thermal stabilisation; K562 lysate, 10 uM; active = over 0.2 and 3.5 SD of the protein, either way, in both replicates (recomputed)
erlotinib = compound: C#Cc1cccc(Nc2ncnc3cc(OCCOC)c(OCCOC)cc23)c1 [erlotinib]
Method in brief: (§1)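 Thermal stability, expressed as log-two fold change relative to solvent controls, is given from duplicates. Crude K562 extract in PBS pH 7.4 with 1 mM MgCl2, at 1 mg/mL protein, was treated with 10 μM compound for 30 min and heated in aliquots for 3 min across 48°C-58°C. After pooling, adjustment to 0.5% NP-40 at 4°C and centrifugation at 21,000xg for 90 min, supernatant protein was measured by TMTpro 16plex LC-MS/MS with channel sums equalised.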

[1] = compound: C/C(=N\NC(=O)C1=CC(=CC=C1)S(=O)(=O)N2CCOCC2)/C3=C(C=CC(=C3)Cl)O
Method in brief: as §1

[2] = compound: C1=CC(=CC=C1C2=NC3=C(N2)C=C(C=C3)C(=O)N)OC4=CC=C(C=C4)Cl
Method in brief: as §1

[3] = compound: C1=CC2=C(C=CC(=C2)/C=C\3/C(=O)NC(=NCC4=CC=CS4)S3)N=C1
Method in brief: as §1

[4] = compound: C1=CC2=NC=CN=C2C=C1/C=C/3\C(=O)NC(=O)S3
Method in brief: as §1

[5] = compound: C1=CC=C(C=C1)C2=NC(=C(N2)C3=CC=NC=C3)C4=CC(=C(C=C4)Cl)O
Method in brief: as §1

[6] = compound: C1=CC=C2C(=C1)C3=NNC4=CC=CC(=C43)C2=O
Method in brief: as §1

[7] = compound: C1CCN(C1)C(=O)NC2=CC=CC(=C2)NC3=NC=C(C(=N3)NCCC4=CN=CN4)Br
Method in brief: as §1

[8] = compound: C1CN(CCC1(CC2=CC=C(C=C2)Cl)N)C3=NC=NC4=C3C=CN4
Method in brief: as §1

IRAK-1-4 Inhibitor I = compound: C1COCCN1CCN2C3=CC=CC=C3N=C2NC(=O)C4=CC(=CC=C4)[N+](=O)[O-] [IRAK-1-4 Inhibitor I]
Method in brief: as §1

ibrutinib = compound: C=CC(=O)N1CCC[C@@H](n2nc(-c3ccc(Oc4ccccc4)cc3)c3c(N)ncnc32)C1 [ibrutinib]
Method in brief: as §1

[9] = compound: CC(=O)c1cnc2ccc(-c3cc(Cl)c(O)c(Cl)c3)nc2c1N[C@H]1CC[C@H](CN(C)C)CC1
Method in brief: as §1

ralimetinib = compound: CC(C)(C)Cn1c(N)nc2ccc(-c3[nH]c(C(C)(C)C)nc3-c3ccc(F)cc3)nc21 [ralimetinib]
Method in brief: as §1

[10] = compound: CC(C)(O)CC(=O)NCCn1ccc2ncnc(Nc3ccc(Oc4cccc(C(F)(F)F)c4)c(Cl)c3)c21
Method in brief: as §1

[11] = compound: CC(C)C1=C2N=C(C=C(N2N=C1)NCC3=CC=CC=C3)NCCCCCCN
Method in brief: as §1

[12] = compound: CC1=C(C(CC(=O)N1)C2=CC=C(C=C2)C(F)(F)F)C(=O)NC3=C(C=C4C(=C3)C=NN4)F
Method in brief: as §1

[13] = compound: CC1=C(C2=C(C=C1)C(=O)C3=CC=CC=C3N2CCCN)C
Method in brief: as §1

[14] = compound: CC1=C(C=C(C=C1)NC(=O)C2=CC(=CC=C2)C(C)(C)C#N)NC3=CC4=C(C=C3)N=CN(C4=O)C
Method in brief: as §1

[15] = compound: CC1=C(C=C(C=C1)NC(=O)C2=CC(=CC=C2)N(C)C)NC(=O)C3=CC=C(C=C3)O
Method in brief: as §1

[16] = compound: CC1=CC=C(C=C1)SC2=C3C=C(SC3=CN=C2)C(=O)N
Method in brief: as §1

Measured: log2 fold change

ENO3 (UniProt P13929)
inactive: erlotinib -0.001 | [1] 0.11 | [2] 0.047 | [3] -0.07 | [4] 0.032 | [5] 0.054 | [6] -0.016 | [7] 0.071 | [8] 0.065 | IRAK-1-4 Inhibitor I 0.099 | ibrutinib 0.092 | [9] 0.001 | ralimetinib 0.111 | [10] 0.071 | [11] -0.004 | [12] -0.026 | [13] -0.193 | [14] 0.083 | [15] -0.04 | [16] -0.016

EIF4E isoform 2 (UniProt P06730)
inactive: erlotinib -0.014 | [1] -0.251 | [2] -0.033 | [3] -0.031 | [4] 0.039 | [5] -0.008 | [6] -0.009 | [7] 0.053 | [8] -0.014 | IRAK-1-4 Inhibitor I -0.01 | ibrutinib 0.031 | [9] 0.006 | ralimetinib 0.006 | [10] 0.003 | [11] -0.033 | [12] 0.003 | [13] 0.001 | [14] 0 | [15] 0.018 | [16] 0.003

EMC8 (UniProt O43402)
inactive: erlotinib -0.007 | [1] 0.04 | [2] 0.007 | [3] 0.013 | [4] 0.051 | [5] -0.009 | [6] -0.046 | [7] -0.006 | [8] 0.01 | IRAK-1-4 Inhibitor I -0.03 | ibrutinib -0.02 | [9] 0 | ralimetinib -0.002 | [10] 0.006 | [11] 0.004 | [12] 0.032 | [13] 0.021 | [14] 0.011 | [15] 0.021 | [16] -0.001

ELP4 (UniProt Q96EB1)
inactive: erlotinib -0.019 | [1] -0.022 | [2] 0.022 | [3] 0.024 | [4] 0.019 | [5] 0.016 | [6] 0.006 | [7] -0.029 | [8] -0.022 | IRAK-1-4 Inhibitor I 0.031 | ibrutinib -0.002 | [9] 0.009 | ralimetinib -0.013 | [10] -0.029 | [11] -0.023 | [12] 0.023 | [13] -0.012 | [14] 0.01 | [15] 0.003 | [16] -0.008

ELMO1 (UniProt Q92556)
inactive: erlotinib -0.003 | [1] -0.065 | [2] -0.004 | [3] -0.024 | [4] -0.005 | [5] -0.023 | [6] 0.007 | [7] -0.02 | [8] 0.003 | IRAK-1-4 Inhibitor I 0.005 | ibrutinib -0.012 | [9] 0.094 | ralimetinib -0.019 | [10] -0.049 | [11] 0.063 | [12] -0.273 | [13] -0.024 | [14] 0.028 | [15] 0.026 | [16] -0.027

EML4 (UniProt Q9HC35)
inactive: erlotinib -0.001 | [1] 0.033 | [2] -0.017 | [3] -0.008 | [4] -0.016 | [5] -0.01 | [6] -0.012 | [7] 0.009 | [8] 0.012 | IRAK-1-4 Inhibitor I 0.006 | ibrutinib 0.007 | [9] -0.007 | ralimetinib 0.037 | [10] -0.001 | [11] 0.001 | [12] -0.024 | [13] 0.015 | [14] 0.024 | [15] 0.001 | [16] 0.002

ENO2 (UniProt P09104)
inactive: erlotinib 0.013 | [1] 0.013 | [2] 0.03 | [3] -0.037 | [4] 0.056 | [5] -0.091 | [6] 0.024 | [7] 0.005 | [8] -0.02 | IRAK-1-4 Inhibitor I -0.036 | ibrutinib -0.008 | [9] -0.014 | ralimetinib 0.031 | [10] -0.051 | [11] -0.007 | [12] -0.013 | [13] -0.029 | [14] 0.035 | [15] 0.032 | [16] 0.011

EP400 isoform 5 (UniProt Q96L91)
inactive: erlotinib 0.045 | [1] 0.01 | [2] -0.007 | [3] -0.023 | [4] -0.042 | [5] -0.003 | [6] -0.074 | [7] -0.027 | [8] -0.023 | IRAK-1-4 Inhibitor I -0.005 | ibrutinib -0.061 | [9] -0.018 | ralimetinib 0.02 | [10] -0.033 | [11] -0.027 | [12] 0.047 | [13] -0.014 | [14] 0.016 | [15] 0.035 | [16] 0.041

EIF5A isoform 2 (UniProt P63241)
inactive: erlotinib -0.012 | [1] 0.001 | [2] 0.007 | [3] 0 | [4] 0.009 | [5] 0.024 | [6] 0.03 | [7] 0.014 | [8] 0.016 | IRAK-1-4 Inhibitor I -0.011 | ibrutinib 0.003 | [9] 0.012 | ralimetinib -0.017 | [10] -0.002 | [11] -0.009 | [12] -0.042 | [13] 0.001 | [14] 0.029 | [15] 0.014 | [16] -0.001

EIF4A3 (UniProt P38919)
inactive: erlotinib 0.04 | [1] 0.003 | [2] -0.008 | [3] -0.026 | [4] 0.016 | [5] 0.011 | [6] -0.002 | [7] -0.006 | [8] 0.001 | IRAK-1-4 Inhibitor I -0.001 | ibrutinib -0.011 | [9] 0.012 | ralimetinib 0.018 | [10] 0.009 | [11] 0.003 | [12] -0.026 | [13] -0.024 | [14] 0.031 | [15] 0.002 | [16] 0.019

Retrieved one by one from above, two records:
EIF4A3 (UniProt P38919)
inactive: erlotinib 0.04 | [1] 0.003 | [2] -0.008 | [3] -0.026 | [4] 0.016 | [5] 0.011 | [6] -0.002 | [7] -0.006 | [8] 0.001 | IRAK-1-4 Inhibitor I -0.001 | ibrutinib -0.011 | [9] 0.012 | ralimetinib 0.018 | [10] 0.009 | [11] 0.003 | [12] -0.026 | [13] -0.024 | [14] 0.031 | [15] 0.002 | [16] 0.019

ENO2 (UniProt P09104)
inactive: erlotinib 0.013 | [1] 0.013 | [2] 0.03 | [3] -0.037 | [4] 0.056 | [5] -0.091 | [6] 0.024 | [7] 0.005 | [8] -0.02 | IRAK-1-4 Inhibitor I -0.036 | ibrutinib -0.008 | [9] -0.014 | ralimetinib 0.031 | [10] -0.051 | [11] -0.007 | [12] -0.013 | [13] -0.029 | [14] 0.035 | [15] 0.032 | [16] 0.011

Following part

EPM2AIP1 (UniProt Q7L775)
inactive: erlotinib 0.001 | [1] 0.103 | [2] 0.024 | [3] 0.013 | [4] 0.059 | [5] 0.008 | [6] -0.065 | [7] 0.004 | [8] -0.02 | IRAK-1-4 Inhibitor I -0.011 | ibrutinib 0.002 | [9] -0.008 | ralimetinib 0.002 | [10] -0.033 | [11] 0.003 | [12] 0.023 | [13] -0.014 | [14] -0.001 | [15] 0 | [16] -0.031

EPB41 (UniProt P11171)
inactive: erlotinib -0.024 | [1] -0.021 | [2] -0.068 | [3] 0.006 | [4] -0.005 | [5] 0 | [6] 0.014 | [7] 0.004 | [8] 0.008 | IRAK-1-4 Inhibitor I -0.028 | ibrutinib 0.01 | [9] 0.026 | ralimetinib 0.009 | [10] 0.012 | [11] -0.003 | [12] -0.001 | [13] 0.018 | [14] -0.023 | [15] 0.01 | [16] 0.044

EIF3C (UniProt Q99613)
inactive: erlotinib -0.02 | [1] 0.022 | [2] -0.047 | [3] -0.001 | [4] 0.028 | [5] -0.023 | [6] -0.037 | [7] 0 | [8] -0.002 | IRAK-1-4 Inhibitor I -0.017 | ibrutinib -0.013 | [9] 0.003 | ralimetinib 0.028 | [10] 0.008 | [11] 0.003 | [12] -0.019 | [13] 0.006 | [14] -0.022 | [15] 0.039 | [16] 0.012

ELP6 (UniProt Q0PNE2)
inactive: erlotinib 0.015 | [1] -0.093 | [2] -0.002 | [3] -0.024 | [4] -0.011 | [5] 0.005 | [6] -0.008 | [7] 0.005 | [8] 0.034 | IRAK-1-4 Inhibitor I 0.019 | ibrutinib 0.014 | [9] -0.018 | ralimetinib -0.016 | [10] -0.019 | [11] 0.001 | [12] 0.002 | [13] -0.01 | [14] 0.003 | [15] -0.022 | [16] -0.045

EIF3J (UniProt O75822)
inactive: erlotinib 0.003 | [1] -0.001 | [2] 0.034 | [3] -0.014 | [4] -0.01 | [5] 0.018 | [6] 0.005 | [7] -0.014 | [8] 0.003 | IRAK-1-4 Inhibitor I 0.008 | ibrutinib -0.04 | [9] -0.012 | ralimetinib -0.032 | [10] -0.006 | [11] -0.012 | [12] -0.026 | [13] 0.004 | [14] 0.009 | [15] 0.022 | [16] -0.003

ERCC3 (UniProt P19447)
inactive: erlotinib 0.024 | [1] -0.035 | [2] 0 | [3] -0.031 | [4] 0.002 | [5] 0.042 | [6] -0.061 | [7] -0.047 | [8] 0.025 | IRAK-1-4 Inhibitor I -0.022 | ibrutinib -0.024 | [9] -0.002 | ralimetinib -0.025 | [10] -0.02 | [11] -0.014 | [12] -0.02 | [13] -0.032 | [14] 0.014 | [15] -0.046 | [16] 0.027
